Test results from paper doi:10.1101/2025.10.11.681831.

Molecular target: T1, YAF9A, 3XFLAG-tagged (pYAF9A::YAF9A::3XFLAG in yaf9a-1, ins1) (Arabidopsis) (UniProt Q9FH40)
T1 sequence: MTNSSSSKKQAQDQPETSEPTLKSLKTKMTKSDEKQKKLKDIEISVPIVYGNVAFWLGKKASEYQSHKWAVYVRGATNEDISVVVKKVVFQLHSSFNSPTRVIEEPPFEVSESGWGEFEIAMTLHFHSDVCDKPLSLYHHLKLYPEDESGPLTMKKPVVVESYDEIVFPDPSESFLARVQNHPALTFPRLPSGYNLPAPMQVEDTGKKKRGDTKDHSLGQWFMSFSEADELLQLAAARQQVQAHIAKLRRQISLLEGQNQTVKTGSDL
Experiment: affinity purification with mass spectrometry

**Q.** “YAF9B (endogenous, in pYAF9A:YAF9A:3XFLAG/yaf9a-1 seedlings after γ-IR) (Arabidopsis (endogenous in seedlings))” was tested. Which binding did it give?
**A.** Its binding is “no binding”.

Results are given in words; binding and its absence hold for the method and conditions named. Binding seen in cells or lysates may run through a third protein. Here binding means that the protein was enriched with, or labelled near, the bait; the list need not be complete. A no says only that the protein was not detected with the bait. Sequences can lack the tags named with a protein.
